No constants are given. Whether binding was seen depends on the method and setting. Binding seen in cells or lysates may run through a third protein. Here binding means that the protein was enriched with, or labelled near, the bait; the list need not be complete. Where a sequence is shown, tags or fusion partners need not be part of it.
T1: sDectin-1-Fc (mouse) (UniProt Q6QLQ4)
T1 sequence: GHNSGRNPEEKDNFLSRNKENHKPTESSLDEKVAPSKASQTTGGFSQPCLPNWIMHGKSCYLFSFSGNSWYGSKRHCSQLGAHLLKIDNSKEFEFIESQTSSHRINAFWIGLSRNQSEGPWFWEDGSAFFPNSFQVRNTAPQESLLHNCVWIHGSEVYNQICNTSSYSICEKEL

By UniProt entry, the sequences of proteins in these tests, tags left out. Residues count along the entry.
UniProt P02468, residues 34-1607: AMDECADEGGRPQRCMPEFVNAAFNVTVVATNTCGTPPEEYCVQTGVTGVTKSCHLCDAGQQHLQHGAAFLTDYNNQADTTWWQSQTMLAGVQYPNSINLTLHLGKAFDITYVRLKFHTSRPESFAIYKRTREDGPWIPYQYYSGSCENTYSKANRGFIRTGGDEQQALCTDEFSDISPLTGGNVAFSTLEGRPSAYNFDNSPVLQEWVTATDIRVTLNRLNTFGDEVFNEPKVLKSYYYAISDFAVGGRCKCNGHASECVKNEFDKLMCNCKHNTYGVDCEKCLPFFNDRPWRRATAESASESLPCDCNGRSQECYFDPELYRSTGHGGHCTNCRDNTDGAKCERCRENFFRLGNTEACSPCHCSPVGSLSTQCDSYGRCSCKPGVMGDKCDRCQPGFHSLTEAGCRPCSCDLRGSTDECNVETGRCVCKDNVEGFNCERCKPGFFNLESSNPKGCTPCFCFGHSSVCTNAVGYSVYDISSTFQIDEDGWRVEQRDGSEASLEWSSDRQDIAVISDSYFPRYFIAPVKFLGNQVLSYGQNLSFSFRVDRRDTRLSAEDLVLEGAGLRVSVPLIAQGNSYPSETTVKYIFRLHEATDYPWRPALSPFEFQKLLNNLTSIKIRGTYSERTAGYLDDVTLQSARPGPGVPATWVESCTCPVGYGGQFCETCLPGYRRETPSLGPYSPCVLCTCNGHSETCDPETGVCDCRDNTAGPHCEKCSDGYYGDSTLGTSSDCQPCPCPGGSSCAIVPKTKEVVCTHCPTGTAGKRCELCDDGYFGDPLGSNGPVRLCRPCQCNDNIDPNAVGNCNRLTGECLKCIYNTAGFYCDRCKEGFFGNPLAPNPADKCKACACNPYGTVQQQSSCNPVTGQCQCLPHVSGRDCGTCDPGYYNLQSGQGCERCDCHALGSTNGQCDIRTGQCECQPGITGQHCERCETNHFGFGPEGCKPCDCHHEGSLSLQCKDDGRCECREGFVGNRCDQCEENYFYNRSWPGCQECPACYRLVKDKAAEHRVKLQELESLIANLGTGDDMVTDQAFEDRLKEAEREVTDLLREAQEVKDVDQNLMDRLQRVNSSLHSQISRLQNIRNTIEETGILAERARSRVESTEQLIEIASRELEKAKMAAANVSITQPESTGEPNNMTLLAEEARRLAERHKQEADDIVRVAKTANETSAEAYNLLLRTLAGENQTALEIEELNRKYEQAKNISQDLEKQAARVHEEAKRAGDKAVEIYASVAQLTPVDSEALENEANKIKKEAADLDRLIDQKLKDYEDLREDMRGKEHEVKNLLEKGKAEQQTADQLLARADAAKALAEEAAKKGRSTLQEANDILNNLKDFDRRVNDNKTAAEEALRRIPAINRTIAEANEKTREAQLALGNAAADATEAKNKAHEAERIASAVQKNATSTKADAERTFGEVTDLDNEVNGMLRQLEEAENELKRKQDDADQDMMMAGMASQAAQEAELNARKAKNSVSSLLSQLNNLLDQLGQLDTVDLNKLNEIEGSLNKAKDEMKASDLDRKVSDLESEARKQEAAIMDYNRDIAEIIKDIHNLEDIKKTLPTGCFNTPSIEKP
UniProt Q64727: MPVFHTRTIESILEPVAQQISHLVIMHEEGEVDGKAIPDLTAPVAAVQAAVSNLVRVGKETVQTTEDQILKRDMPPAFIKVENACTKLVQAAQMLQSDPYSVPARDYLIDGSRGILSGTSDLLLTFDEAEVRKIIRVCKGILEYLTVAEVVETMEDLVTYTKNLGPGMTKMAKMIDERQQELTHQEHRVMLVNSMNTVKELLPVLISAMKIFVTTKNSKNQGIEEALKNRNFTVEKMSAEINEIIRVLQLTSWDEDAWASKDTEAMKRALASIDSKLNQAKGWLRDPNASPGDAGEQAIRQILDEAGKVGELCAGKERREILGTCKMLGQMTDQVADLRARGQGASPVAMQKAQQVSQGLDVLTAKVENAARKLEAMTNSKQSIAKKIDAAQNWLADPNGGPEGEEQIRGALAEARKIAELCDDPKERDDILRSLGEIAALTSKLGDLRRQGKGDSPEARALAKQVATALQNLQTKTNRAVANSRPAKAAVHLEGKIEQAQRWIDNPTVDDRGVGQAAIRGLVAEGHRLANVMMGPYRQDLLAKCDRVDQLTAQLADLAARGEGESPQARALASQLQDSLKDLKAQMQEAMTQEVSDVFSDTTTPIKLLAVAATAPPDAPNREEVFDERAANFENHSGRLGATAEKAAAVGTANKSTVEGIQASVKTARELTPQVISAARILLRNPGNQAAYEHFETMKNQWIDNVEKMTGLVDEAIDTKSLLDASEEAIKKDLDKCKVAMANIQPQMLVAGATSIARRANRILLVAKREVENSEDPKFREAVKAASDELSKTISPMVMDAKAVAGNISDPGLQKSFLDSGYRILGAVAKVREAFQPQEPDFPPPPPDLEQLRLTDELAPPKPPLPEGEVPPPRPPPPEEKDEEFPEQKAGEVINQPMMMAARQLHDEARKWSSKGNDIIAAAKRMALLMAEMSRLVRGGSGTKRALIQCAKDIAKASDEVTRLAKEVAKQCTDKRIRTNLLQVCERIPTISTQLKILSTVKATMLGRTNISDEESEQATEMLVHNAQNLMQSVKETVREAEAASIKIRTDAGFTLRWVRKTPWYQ
UniProt P18760: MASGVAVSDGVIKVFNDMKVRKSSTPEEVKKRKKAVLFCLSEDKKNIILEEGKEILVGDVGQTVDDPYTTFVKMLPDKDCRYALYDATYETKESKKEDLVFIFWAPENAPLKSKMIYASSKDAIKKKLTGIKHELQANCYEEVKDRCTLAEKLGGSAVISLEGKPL
UniProt Q61292, residues 36-1799: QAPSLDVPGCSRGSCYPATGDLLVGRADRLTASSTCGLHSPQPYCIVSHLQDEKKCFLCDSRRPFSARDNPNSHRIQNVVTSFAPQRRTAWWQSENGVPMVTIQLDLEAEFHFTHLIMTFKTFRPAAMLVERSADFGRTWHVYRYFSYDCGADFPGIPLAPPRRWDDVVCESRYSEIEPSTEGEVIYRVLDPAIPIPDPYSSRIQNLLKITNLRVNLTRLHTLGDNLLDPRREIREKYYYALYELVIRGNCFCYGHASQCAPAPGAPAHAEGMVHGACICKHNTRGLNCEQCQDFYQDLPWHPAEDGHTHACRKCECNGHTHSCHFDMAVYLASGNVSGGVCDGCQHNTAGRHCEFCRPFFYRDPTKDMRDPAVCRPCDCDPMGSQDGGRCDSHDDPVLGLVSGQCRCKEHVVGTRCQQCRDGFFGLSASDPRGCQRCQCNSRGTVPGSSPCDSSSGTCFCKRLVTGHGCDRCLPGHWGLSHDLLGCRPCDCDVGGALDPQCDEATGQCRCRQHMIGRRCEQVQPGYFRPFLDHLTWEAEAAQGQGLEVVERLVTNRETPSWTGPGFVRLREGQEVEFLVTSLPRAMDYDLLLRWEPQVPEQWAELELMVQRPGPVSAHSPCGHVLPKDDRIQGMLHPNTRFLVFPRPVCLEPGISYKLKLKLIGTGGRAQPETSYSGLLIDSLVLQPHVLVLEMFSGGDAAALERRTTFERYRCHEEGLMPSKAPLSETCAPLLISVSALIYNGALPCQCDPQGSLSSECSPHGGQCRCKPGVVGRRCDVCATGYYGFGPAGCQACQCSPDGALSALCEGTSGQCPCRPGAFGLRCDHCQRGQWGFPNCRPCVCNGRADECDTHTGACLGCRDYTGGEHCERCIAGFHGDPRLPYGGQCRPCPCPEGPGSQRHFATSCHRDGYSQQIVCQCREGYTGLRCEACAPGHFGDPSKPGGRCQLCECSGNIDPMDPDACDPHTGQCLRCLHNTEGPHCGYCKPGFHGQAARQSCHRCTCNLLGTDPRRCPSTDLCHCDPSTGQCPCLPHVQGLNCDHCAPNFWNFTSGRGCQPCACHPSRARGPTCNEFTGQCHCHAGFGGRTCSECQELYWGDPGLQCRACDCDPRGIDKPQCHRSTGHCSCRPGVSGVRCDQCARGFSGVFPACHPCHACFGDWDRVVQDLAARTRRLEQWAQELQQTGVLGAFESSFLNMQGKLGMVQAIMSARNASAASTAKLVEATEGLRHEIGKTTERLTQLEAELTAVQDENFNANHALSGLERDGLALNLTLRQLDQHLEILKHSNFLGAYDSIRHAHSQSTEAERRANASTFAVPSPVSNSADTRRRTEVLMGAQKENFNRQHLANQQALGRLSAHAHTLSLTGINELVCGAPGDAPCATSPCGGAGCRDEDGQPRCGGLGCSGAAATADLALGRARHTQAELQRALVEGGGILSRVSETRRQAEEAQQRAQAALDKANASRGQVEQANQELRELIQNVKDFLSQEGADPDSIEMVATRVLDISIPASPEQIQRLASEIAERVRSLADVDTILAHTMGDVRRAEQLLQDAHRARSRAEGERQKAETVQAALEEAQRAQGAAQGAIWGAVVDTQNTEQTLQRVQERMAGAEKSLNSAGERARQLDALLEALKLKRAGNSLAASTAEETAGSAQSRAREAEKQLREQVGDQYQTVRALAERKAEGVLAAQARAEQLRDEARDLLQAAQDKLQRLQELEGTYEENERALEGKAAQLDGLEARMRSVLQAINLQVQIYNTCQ
UniProt P02469, residues 22-1786: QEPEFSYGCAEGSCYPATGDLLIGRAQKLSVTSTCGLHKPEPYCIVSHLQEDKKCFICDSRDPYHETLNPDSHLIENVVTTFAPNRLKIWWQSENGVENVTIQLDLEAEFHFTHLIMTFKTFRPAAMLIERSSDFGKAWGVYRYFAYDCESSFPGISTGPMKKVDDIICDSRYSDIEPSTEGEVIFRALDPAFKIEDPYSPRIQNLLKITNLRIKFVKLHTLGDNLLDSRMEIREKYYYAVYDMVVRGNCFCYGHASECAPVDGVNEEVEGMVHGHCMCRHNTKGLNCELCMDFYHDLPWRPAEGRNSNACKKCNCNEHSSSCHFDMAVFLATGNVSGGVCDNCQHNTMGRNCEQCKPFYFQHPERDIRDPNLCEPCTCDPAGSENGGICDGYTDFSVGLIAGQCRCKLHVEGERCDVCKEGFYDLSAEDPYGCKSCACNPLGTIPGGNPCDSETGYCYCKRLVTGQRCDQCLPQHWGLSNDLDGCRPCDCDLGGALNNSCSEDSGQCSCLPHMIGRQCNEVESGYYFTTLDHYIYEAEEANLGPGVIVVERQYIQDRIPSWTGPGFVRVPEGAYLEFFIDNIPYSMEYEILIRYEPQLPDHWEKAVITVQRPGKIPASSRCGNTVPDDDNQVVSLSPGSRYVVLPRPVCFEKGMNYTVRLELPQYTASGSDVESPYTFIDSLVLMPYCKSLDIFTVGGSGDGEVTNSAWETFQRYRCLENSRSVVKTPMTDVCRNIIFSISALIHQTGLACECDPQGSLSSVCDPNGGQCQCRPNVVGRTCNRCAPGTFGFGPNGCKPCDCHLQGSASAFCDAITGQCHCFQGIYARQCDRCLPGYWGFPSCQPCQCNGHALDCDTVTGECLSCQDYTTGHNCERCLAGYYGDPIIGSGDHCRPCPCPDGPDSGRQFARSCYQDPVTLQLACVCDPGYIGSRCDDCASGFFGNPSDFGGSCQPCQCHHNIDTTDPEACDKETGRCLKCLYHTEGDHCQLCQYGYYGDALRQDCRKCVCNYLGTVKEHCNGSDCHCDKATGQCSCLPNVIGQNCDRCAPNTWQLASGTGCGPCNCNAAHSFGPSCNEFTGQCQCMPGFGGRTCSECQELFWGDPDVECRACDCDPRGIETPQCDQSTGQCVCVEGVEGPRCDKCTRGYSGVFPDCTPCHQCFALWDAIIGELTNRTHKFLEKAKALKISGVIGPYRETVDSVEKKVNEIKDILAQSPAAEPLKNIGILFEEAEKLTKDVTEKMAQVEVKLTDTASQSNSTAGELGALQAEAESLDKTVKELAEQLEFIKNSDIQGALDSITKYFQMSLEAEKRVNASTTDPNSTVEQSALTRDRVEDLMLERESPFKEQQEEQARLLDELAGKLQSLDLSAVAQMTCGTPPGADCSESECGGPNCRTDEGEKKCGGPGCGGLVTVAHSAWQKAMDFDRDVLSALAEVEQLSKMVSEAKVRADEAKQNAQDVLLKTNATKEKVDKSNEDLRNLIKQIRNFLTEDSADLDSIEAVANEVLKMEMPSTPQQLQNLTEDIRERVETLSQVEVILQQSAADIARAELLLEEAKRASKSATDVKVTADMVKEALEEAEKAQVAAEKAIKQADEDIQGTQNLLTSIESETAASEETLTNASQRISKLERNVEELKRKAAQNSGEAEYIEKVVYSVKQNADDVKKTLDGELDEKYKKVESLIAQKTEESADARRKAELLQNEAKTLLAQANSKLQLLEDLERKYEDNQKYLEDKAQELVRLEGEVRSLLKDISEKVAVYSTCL

T2: sNKG2D-Fc (mouse) (UniProt O54709)
T2 sequence: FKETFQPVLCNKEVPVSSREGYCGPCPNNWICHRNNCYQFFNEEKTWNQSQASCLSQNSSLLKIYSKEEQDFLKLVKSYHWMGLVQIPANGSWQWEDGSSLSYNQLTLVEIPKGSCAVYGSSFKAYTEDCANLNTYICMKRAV

T3: sClec4e-Fc (mouse) (UniProt Q9R0Q8)
T3 sequence: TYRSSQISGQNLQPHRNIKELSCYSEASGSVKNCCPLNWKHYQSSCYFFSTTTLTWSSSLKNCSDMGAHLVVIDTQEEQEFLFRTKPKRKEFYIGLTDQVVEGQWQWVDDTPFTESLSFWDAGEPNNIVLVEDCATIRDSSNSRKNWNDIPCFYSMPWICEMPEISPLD


What was measured:
Test in all cases: affinity purification with mass spectrometry; extracts of AT3 cells overexpressing CLR-Fc fusion protein (and control AT3 cells) precipitated with protein A-Sepharose, 2 h; lysis and wash buffer 50 mM Tris HCl pH 8.0, 300 mM NaCl, 1 mM MgCl2, 10 mM KCl, 0.5% NP-40, 10% glycerol; MS/MS of the co-precipitated proteins
sDectin-1-Fc (mouse) = biological target: T1, sDectin-1-Fc (mouse)
sNKG2D-Fc (mouse) = biological target: T2, sNKG2D-Fc (mouse)
sClec4e-Fc (mouse) = biological target: T3, sClec4e-Fc (mouse)

binding (sDectin-1-Fc (mouse))	binding (sNKG2D-Fc (mouse))	binding (sClec4e-Fc (mouse))	Molecule
binds	binds	binds	Laminin subunit gamma-1 (from UniProt P02468 34-1607)
–	binds	binds	Clathrin light chain A (from UniProt B1AWE0)
binds	–	–	Vinculin (from UniProt Q64727 1-1066)
–	–	binds	4F2 cell-surface antigen heavy chain (from UniProt P10852 1-526)
binds	binds	binds	Cofilin-1 (from UniProt P18760 1-166)
binds	binds	binds	Laminin subunit beta-2 (from UniProt Q61292 36-1799)
binds	binds	binds	Laminin subunit beta-1 (from UniProt P02469 22-1786)
binds	–	–	Protein S100-A11 (protein, UniProt P50543 1-98) MPTETERCIESLIAVFQKYSGKDGNNTQLSKTEFLSFMNTELAAFTKNQKDPGVLDRMMKKLDLNCDGQLDFQEFLNLIGGLAIACHDSFIQTSQKRI
–	–	binds	Calnexin (protein, UniProt P35564 21-591) HDGHDDDAIDIEDDLDDVIEEVEDSKSKSDASTPPSPKVTYKAPVPTGEVYFADSFDRGSLSGWILSKAKKDDTDDEIAKYDGKWEVDEMKETKLPGDKGLVLMSRAKHHAISAKLNKPFLFDTKPLIVQYEVNFQNGIECGGAYVKLLSKTAELSLDQFHDKTPYTIMFGPDKCGEDYKLHFIFRHKNPKTGVYEEKHAKRPDADLKTYFTDKKTHLYTLILNPDNSFEILVDQSVVNSGNLLNDMTPPVNPSREIEDPEDRKPEDWDERPKIADPDAVKPDDWDEDAPSKIPDEEATKPEGWLDDEPEYIPDPDAEKPEDWDEDMDGEWEAPQIANPKCESAPGCGVWQRPMIDNPNYKGKWKPPMIDNPNYQGIWKPRKIPNPDFFEDLEPFKMTPFSAIGLELWSMTSDIFFDNFIISGDRRVVDDWANDGWGLKKAADGAAEPGVVLQMLEAAEERPWLWVVYILTVALPVFLVILFCCSGKKQSNAMEYKKTDAPQPDVKDEEGKEEEKNKRDEEEEEEKLEEKQKSDAEEDGVTGSQDEEDSKPKAEEDEILNRSPRNRKPRRE
binds	–	binds	Nidogen-1 (endogenous) (protein, UniProt P10493 29-1245) LNRQELFPFGPGQGDLELEAGDDVVSPSLELIGELSFYDRTDITSVYVTTNGIIAMSEPPATEYHPGTFPPSFGSVAPFLADLDTTDGLGNVYYREDLSPFIIQMAAEYVQRGFPEVSFQPTSVVVVTWESVAPYGGPSSSPAEEGKRNTFQAVLASSNSSSYAIFLYPEDGLQFFTTFSKKDESQVPAVVGFSKGLVGFLWKSNGAYNIFANDRESIENLAKSSNAGHQGVWVFEIGSPATAKGVVSADVNLDLDDDGADYEDEDYDLVTSHLGLEDVATPSPSHSPRRGYPDPHNVPRILSPGYEATERPRGVPTERTRSFQLPAERFPQHHPQVIDVDEVEETGVVFSYNTGSQQTCANNRHQCSVHAECRDYATGFCCRCVANYTGNGRQCVAEGSPQRVNGKVKGRIFVGSSQVPVVFENTDLHSYVVMNHGRSYTAISTIPETVGYSLLPLAPIGGIIGWMFAVEQDGFKNGFSITGGEFTRQAEVTFLGHPGKLVLKQQFSGIDEHGHLTISTELEGRVPQIPYGASVHIEPYTELYHYSSSVITSSSTREYTVMEPDQDGAAPSHTHIYQWRQTITFQECAHDDARPALPSTQQLSVDSVFVLYNKEERILRYALSNSIGPVRDGSPDALQNPCYIGTHGCDSNAACRPGPGTQFTCECSIGFRGDGQTCYDIDECSEQPSRCGNHAVCNNLPGTFRCECVEGYHFSDRGTCVAAEDQRPINYCETGLHNCDIPQRAQCIYMGGSSYTCSCLPGFSGDGRACRDVDECQHSRCHPDAFCYNTPGSFTCQCKPGYQGDGFRCMPGEVSKTRCQLEREHILGAAGGADAQRPTLQGMFVPQCDEYGHYVPTQCHHSTGYCWCVDRDGRELEGSRTPPGMRPPCLSTVAPPIHQGPVVPTAVIPLPPGTHLLFAQTGKIERLPLERNTMKKTEAKAFLHIPAKVIIGLAFDCVDKVVYWTDISEPSIGRASLHGGEPTTIIRQDLGSPEGIALDHLGRTIFWTDSQLDRIEVAKMDGTQRRVLFDTGLVNPRGIVTDPVRGNLYWTDWNRDNPKIETSHMDGTNRRILAQDNLGLPNGLTFDAFSSQLCWVDAGTHRAECLNPAQPGRRKVLEGLQYPFAVTSYGKNLYYTDWKTNSVIAMDLAISKEMDTFHPHKQTRLYGITIALSQCPQGHNYCSVNNGGCTHLCLPTPGSRTCRCPDNTLGVDCIERK
binds	–	–	Annexin A3 (protein, UniProt O35639 1-323) MASIWVGPRGTIKDYPGFSPSVDAEAIRKAIRGLGTDEKTLINILTERSNAQRQLIVKQYQAAYEQELKDDLKGDLSGHFEHVMVALVTAPALFDAKQLKKSMKGTGTDEDALIEILTTRSSRQMKEISQAYYTVYKKSLGDDISSETSGDFRKALLTLADGRRDESLKVDEHLAKKDAQILYNAGENKWGTDEDKFTEVLCLRSFPQLKLTFDEYRNISQKDIEDSIKGELSGHFEDLLLAIVHCARNTPAFLAERLHQALKGAGTDEFTLNRIMVSRSEIDLLDIRHEFKKHYGYSLYSAIQSDTSGDYRTVLLKICGEDD

Reference: publication PMC9030733
